This passage reports binding results from doi:10.1101/2024.11.05.621850.

Amino acid sequences for entries named in this document (tags omitted). A change or cut given only in a name is not applied to a line headed by its entry.
UniProt P61106, whole entry, looked up, stated change not applied: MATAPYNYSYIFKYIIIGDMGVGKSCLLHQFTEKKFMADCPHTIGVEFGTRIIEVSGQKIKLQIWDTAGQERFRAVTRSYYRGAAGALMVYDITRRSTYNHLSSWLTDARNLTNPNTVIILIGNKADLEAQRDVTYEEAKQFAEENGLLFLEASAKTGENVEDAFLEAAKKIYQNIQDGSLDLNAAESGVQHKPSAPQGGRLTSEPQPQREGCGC
UniProt P61019, whole entry: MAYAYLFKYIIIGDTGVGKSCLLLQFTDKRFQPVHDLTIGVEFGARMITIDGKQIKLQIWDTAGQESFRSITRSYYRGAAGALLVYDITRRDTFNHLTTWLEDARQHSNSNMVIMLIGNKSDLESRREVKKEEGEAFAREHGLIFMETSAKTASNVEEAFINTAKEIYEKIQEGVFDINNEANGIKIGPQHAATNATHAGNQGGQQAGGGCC
UniProt Q96Q42, whole entry: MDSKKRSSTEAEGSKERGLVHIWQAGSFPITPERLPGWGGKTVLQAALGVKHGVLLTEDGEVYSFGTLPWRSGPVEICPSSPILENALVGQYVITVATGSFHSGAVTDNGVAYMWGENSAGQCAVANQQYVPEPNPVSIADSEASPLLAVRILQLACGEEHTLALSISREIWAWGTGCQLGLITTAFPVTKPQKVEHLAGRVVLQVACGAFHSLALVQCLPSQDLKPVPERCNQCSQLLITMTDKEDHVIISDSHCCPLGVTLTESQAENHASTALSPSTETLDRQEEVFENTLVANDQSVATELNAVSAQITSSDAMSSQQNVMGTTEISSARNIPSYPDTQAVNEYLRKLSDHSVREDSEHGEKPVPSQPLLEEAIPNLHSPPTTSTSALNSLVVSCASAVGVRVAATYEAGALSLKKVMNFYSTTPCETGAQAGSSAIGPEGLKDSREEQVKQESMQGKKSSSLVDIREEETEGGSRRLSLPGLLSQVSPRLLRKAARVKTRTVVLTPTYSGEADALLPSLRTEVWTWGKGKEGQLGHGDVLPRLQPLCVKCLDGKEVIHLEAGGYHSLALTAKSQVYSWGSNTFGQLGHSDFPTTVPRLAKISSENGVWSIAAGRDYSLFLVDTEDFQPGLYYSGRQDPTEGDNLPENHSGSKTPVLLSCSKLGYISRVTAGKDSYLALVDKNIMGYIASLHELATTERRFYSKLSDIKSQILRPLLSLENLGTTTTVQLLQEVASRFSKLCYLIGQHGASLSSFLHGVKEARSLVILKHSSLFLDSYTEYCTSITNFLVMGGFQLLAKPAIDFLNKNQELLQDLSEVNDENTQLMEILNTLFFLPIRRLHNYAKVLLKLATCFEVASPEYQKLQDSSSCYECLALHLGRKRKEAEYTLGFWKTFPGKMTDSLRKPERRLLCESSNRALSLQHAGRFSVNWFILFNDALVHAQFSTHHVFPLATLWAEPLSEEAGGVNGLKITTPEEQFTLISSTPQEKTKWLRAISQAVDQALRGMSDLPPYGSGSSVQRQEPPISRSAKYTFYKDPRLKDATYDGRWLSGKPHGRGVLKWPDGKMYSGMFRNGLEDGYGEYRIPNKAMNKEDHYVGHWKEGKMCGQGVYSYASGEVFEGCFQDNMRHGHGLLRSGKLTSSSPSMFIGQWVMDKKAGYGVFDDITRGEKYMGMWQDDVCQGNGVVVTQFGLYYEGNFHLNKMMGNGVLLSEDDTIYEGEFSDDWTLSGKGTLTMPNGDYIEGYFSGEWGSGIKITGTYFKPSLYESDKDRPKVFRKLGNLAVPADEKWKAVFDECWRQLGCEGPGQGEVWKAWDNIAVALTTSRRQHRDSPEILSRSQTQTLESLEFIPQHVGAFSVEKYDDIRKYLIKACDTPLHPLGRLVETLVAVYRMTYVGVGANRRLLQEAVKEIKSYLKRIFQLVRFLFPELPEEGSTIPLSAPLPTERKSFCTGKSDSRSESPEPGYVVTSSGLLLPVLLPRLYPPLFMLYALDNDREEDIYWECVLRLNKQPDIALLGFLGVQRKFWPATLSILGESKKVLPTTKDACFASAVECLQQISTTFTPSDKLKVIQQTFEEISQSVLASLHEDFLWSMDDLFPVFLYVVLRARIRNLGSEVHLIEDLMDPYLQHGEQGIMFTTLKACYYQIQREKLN

Assay [1] deals with T1, GFP:RAB25 (human) (UniProt P57735).
T1 sequence: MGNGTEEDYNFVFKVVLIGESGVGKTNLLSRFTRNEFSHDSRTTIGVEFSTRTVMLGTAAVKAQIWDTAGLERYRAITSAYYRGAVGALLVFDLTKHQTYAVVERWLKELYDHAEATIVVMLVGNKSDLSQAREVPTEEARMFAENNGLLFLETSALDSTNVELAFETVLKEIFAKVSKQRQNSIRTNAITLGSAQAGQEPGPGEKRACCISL
Briefly: co-IP.

Assay [2] has as its target GFP:RAB14 Q70L (CA) (human) (UniProt P61106). Kind of assay: co-IP.
Assay [3] deals with T2, EGFP:RAB32WT (human) (UniProt Q13637).
T2 sequence: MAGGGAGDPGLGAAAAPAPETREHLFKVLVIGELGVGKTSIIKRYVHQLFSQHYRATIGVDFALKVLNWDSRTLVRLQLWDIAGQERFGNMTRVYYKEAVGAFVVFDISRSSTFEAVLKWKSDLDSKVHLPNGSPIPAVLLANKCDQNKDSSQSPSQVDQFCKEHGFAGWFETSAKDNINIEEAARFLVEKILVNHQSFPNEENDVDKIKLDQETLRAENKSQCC
Kind of assay: co-IP.

Assay [4] addresses T3, GFP:RAB32CA (Q85L) (human) (UniProt Q13637).
T3 sequence: T2 sequence with Q85L
Kind of assay: co-IP.

Assay [5] concerns the target GFP:RAB2A (UniProt P61019). Briefly: proximity ligation.

Numbering of substitutions follows the chain as printed. These are yes or no findings as the source states them, for the method shown. In cells and extracts the contact can be indirect. Some entries that bind do so weakly or less than the wild type. For part of these data: Where a sequence is shown, tags or fusion partners need not be part of it.

For the molecule HA:ALS2 (from UniProt Q96Q42 1-1657), in assay [1], the binding result is “binds”.

B1: V5:VPS53 (protein, UniProt Q5VIR6 1-832)
chain: MMEEEELEFVEELEAVLQLTPEVQLAIEQVFPSQDPLDRADFNAVEYINTLFPTEQSLANIDEVVNKIRLKIRRLDDNIRTVVRGQTNVGQDGRQALEEAQKAIQQLFGKIKDIKDKAEKSEQMVKEITRDIKQLDHAKRHLTTSITTLNHLHMLAGGVDSLEAMTRRRQYGEVANLLQGVMNVLEHFHKYMGIPQIRQLSERVKAAQTELGQQILADFEEAFPSQGTKRPGGPSNVLRDACLVANILDPRIKQEIIKKFIKQHLSEYLVLFQENQDVAWLDKIDRRYAWIKRQLVDYEEKYGRMFPREWCMAERIAVEFCHVTRAELAKIMRTRAKEIEVKLLLFAIQRTTNFEGFLAKRFSGCTLTDGTLKKLESPPPSTNPFLEDEPTPEMEELATEKGDLDQPKKPKAPDNPFHGIVSKCFEPHLYVYIESQDKNLGELIDRFVADFKAQGPPKPNTDEGGAVLPSCADLFVYYKKCMVQCSQLSTGEPMIALTTIFQKYLREYAWKILSGNLPKTTTSSGGLTISSLLKEKEGSEVAKFTLEELCLICNILSTAEYCLATTQQLEEKLKEKVDVSLIERINLTGEMDTFSTVISSSIQLLVQDLDAACDPALTAMSKMQWQNVEHVGDQSPYVTSVILHIKQNVPIIRDNLASTRKYFTQFCVKFANSFIPKFITHLFKCKPISMVGAEQLLLDTHSLKMVLLDLPSISSQVVRKAPASYTKIVVKGMTRAEMILKVVMAPHEPLVVFVDNYIKLLTDCNTETFQKILDMKGLKRSEQSSMLELLRQRLPAPPSGAESSGSLSLTAPTPEQESSRIRKLEKLIKKRL
As for B1, the binding entry in assay [2] is “binds”.

B2: HA:RABIN8 (protein, UniProt Q96QF0 1-476)
chain: MGLKKMKGLSYDEAFAMANDPLEGFHEVNLASPTSPDLLGVYESGTQEQTTSPSVIYRPHPSALSSVPIQANALDVSELPTQPVYSSPRRLNCAEISSISFHVTDPAPCSTSGVTAGLTKLTTRKDNYNAEREFLQGATITEACDGSDDIFGLSTDSLSRLRSPSVLEVREKGYERLKEELAKAQRELKLKDEECERLSKVRDQLGQELEELTASLFEEAHKMVREANIKQATAEKQLKEAQGKIDVLQAEVAALKTLVLSSSPTSPTQEPLPGGKTPFKKGHTRNKSTSSAMSGSHQDLSVIQPIVKDCKEADLSLYNEFRLWKDEPTMDRTCPFLDKIYQEDIFPCLTFSKSELASAVLEAVENNTLSIEPVGLQPIRFVKASAVECGGPKKCALTGQSKSCKHRIKLGDSSNYYYISPFCRYRITSVCNFFTYIRYIQQGLVKQQDVDQMFWEVMQLRKEMSLAKLGYFKEEL
With B2, the binding entry in assay [3] and in assay [4] was “binds” each time.

B3: 3xHA COG4 (protein, UniProt Q9H9E3 1-785)
chain: MADLDSPPKLSGVQQPSEGVGGGRCSEISAELIRSLTELQELEAVYERLCGEEKVVERELDALLEQQNTIESKMVTLHRMGPNLQLIEGDAKQLAGMITFTCNLAENVSSKVRQLDLAKNRLYQAIQRADDILDLKFCMDGVQTALRSEDYEQAAAHTHRYLCLDKSVIELSRQGKEGSMIDANLKLLQEAEQRLKAIVAEKFAIATKEGDLPQVERFFKIFPLLGLHEEGLRKFSEYLCKQVASKAEENLLMVLGTDMSDRRAAVIFADTLTLLFEGIARIVETHQPIVETYYGPGRLYTLIKYLQVECDRQVEKVVDKFIKQRDYHQQFRHVQNNLMRNSTTEKIEPRELDPILTEVTLMNARSELYLRFLKKRISSDFEVGDSMASEEVKQEHQKCLDKLLNNCLLSCTMQELIGLYVTMEEYFMRETVNKAVALDTYEKGQLTSSMVDDVFYIVKKCIGRALSSSSIDCLCAMINLATTELESDFRDVLCNKLRMGFPATTFQDIQRGVTSAVNIMHSSLQQGKFDTKGIESTDEAKMSFLVTLNNVEVCSENISTLKKTLESDCTKLFSQGIGGEQAQAKFDSCLSDLAAVSNKFRDLLQEGLTELNSTAIKPQVQPWINSFFSVSHNIEEEEFNDYEANDPWVQQFILNLEQQMAEFKASLSPVIYDSLTGLMTSLVAVELEKVVLKSTFNRLGGLQFDKELRSLIAYLTTVTTWTIRDKFARLSQMATILNLERVTEILDYWGPNSGPLTWRLTPAEVRQVLALRIDFRSEDIKRLRL
B3: in assay [5], the binding entry is given as “binds”.

B4: 3xHA COG6 (protein, UniProt Q9Y2V7 1-657)
chain: MAEGSGEVVAVSATGAANGLNNGAGGTSATTCNPLSRKLHKILETRLDNDKEMLEALKALSTFFVENSLRTRRNLRGDIERKSLAINEEFVSIFKEVKEELESISEDVQAMSNCCQDMTSRLQAAKEQTQDLIVKTTKLQSESQKLEIRAQVADAFLSKFQLTSDEMSLLRGTREGPITEDFFKALGRVKQIHNDVKVLLRTNQQTAGLEIMEQMALLQETAYERLYRWAQSECRTLTQESCDVSPVLTQAMEALQDRPVLYKYTLDEFGTARRSTVVRGFIDALTRGGPGGTPRPIEMHSHDPLRYVGDMLAWLHQATASEKEHLEALLKHVTTQGVEENIQEVVGHITEGVCRPLKVRIEQVIVAEPGAVLLYKISNLLKFYHHTISGIVGNSATALLTTIEEMHLLSKKIFFNSLSLHASKLMDKVELPPPDLGPSSALNQTLMLLREVLASHDSSVVPLDARQADFVQVLSCVLDPLLQMCTVSASNLGTADMATFMVNSLYMMKTTLALFEFTDRRLEMLQFQIEAHLDTLINEQASYVLTRVGLSYIYNTVQQHKPEQGSLANMPNLDSVTLKAAMVQFDRYLSAPDNLLIPQLNFLLSATVKEQIVKQSTELVCRAYGEVYAAVMNPINEYKDPENILHRSPQQVQTLLS
With B4, the binding result in assay [5] is “binds”.

B5: 3xHA:GRAB (protein, UniProt Q8TBN0 1-382)
chain: MWSGPPQPDQGLPPPLAAVPVPWKSTDPCQGHRESPGALVETSAGEEAQGQEGPAAAQLDVLRLRSSSMEIREKGSEFLKEELHRAQKELKLKDEECERLSKVREQLEQELEELTASLFEEAHKMVREANMKQAASEKQLKEARGKIDMLQAEVTALKTLVITSTPASPNRELHPQLLSPTKAGPRKGHSRHKSTSSTLCPAVCPAAGHTLTPDREGKEVDTILFAEFQAWRESPTLDKTCPFLERVYREDVGPCLDFTMQELSVLVRAAVEDNTLTIEPVASQTLPTVKVAEVDCSSTNTCALSGLTRTCRHRIRLGDSKSHYYISPSSRARITAVCNFFTYIRYIQQGLVRQDAEPMFWEIMRLRKEMSLAKLGFFPQEA
On to B5, for which the binding result in assay [3] and in assay [4] was “binds” throughout.

B6: 3xHA COG1 (protein, UniProt Q8WTW3 1-980)
chain: MATAATSPALKRLDLRDPAALFETHGAEEIRGLERQVRAEIEHKKEELRQMVGERYRDLIEAADTIGQMRRCAVGLVDAVKATDQYCARLRQAGSAAPRPPRAQQPQQPSQEKFYSMAAQIKLLLEIPEKIWSSMEASQCLHATQLYLLCCHLHSLLQLDSSSSRYSPVLSRFPILIRQVAAASHFRSTILHESKMLLKCQGVSDQAVAEALCSIMLLEESSPRQALTDFLLARKATIQKLLNQPHHGAGIKAQICSLVELLATTLKQAHALFYTLPEGLLPDPALPCGLLFSTLETITGQHPAGKGTGVLQEEMKLCSWFKHLPASIVEFQPTLRTLAHPISQEYLKDTLQKWIHMCNEDIKNGITNLLMYVKSMKGLAGIRDAMWELLTNESTNHSWDVLCRRLLEKPLLFWEDMMQQLFLDRLQTLTKEGFDSISSSSKELLVSALQELESSTSNSPSNKHIHFEYNMSLFLWSESPNDLPSDAAWVSVANRGQFASSGLSMKAQAISPCVQNFCSALDSKLKVKLDDLLAYLPSDDSSLPKDVSPTQAKSSAFDRYADAGTVQEMLRTQSVACIKHIVDCIRAELQSIEEGVQGQQDALNSAKLHSVLFMARLCQSLGELCPHLKQCILGKSESSEKPAREFRALRKQGKVKTQEIIPTQAKWQEVKEVLLQQSVMGYQVWSSAVVKVLIHGFTQSLLLDDAGSVLATATSWDELEIQEEAESGSSVTSKIRLPAQPSWYVQSFLFSLCQEINRVGGHALPKVTLQEMLKSCMVQVVAAYEKLSEEKQIKKEGAFPVTQNRALQLLYDLRYLNIVLTAKGDEVKSGRSKPDSRIEKVTDHLEALIDPFDLDVFTPHLNSNLHRLVQRTSVLFGLVTGTENQLAPRSSTFNSQEPHNILPLASSQIRFGLLPLSMTSTRKAKSTRNIETKAQVVPPARSTAGDPTVPGSLFRQLVSEEDNTSAPSLFKLGWLSSMTK
For the molecule B6, the binding entry in assay [5] is given as “binds”.
